Consider 1 sequence from paper PMC10113159.

Chains of the proteins cited; added tags and fusions are not shown. A line that says so, or that is headed by a name, gives the form on record, which may keep a tag or linker.
RPA heterotrimer, phosphomimetic RPA2 S/T>D S8D,S11D,S12D,S13D,T21D,S23D,S29D,S33D,RPA2: (Homo sapiens), one chain, as listed by the source S11D S12D S13D T21D S23D S29D S33D, chain 2 of 3: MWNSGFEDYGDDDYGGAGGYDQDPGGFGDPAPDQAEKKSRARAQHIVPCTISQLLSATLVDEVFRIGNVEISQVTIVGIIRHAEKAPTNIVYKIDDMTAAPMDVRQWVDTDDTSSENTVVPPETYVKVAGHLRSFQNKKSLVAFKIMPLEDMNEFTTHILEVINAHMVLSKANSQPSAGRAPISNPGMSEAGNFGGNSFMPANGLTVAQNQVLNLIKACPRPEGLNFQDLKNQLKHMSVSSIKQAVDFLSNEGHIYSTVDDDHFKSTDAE

This data set has as its system RPA heterotrimer, phosphomimetic RPA2 S/T>D S8D,S11D,S12D,S13D,T21D,S23D,S29D,S33D,RPA2: (Homo sapiens). The experiment in a line: fluorescence microscopy, co-assembly. The conditions noted are these: equimolar, ssDNA-containing aggregates instead of droplets; protein stored in diluted Sorensen phosphate buffer (43.4 mM Na2HPO4, 6.6 mM KH2PO4) pH 7.6, 150 mM KCl, 25 uM EDTA; recombinant protein; protein details: untagged; single-stranded DNA.

The exact form of at least one protein or probe is not confirmed.

For “ATGTGGAACAGTGGATTCGAAAGCTATGGCAGCGACGACT [FAM-40nt ssDNA]”, the binding result was “binds”.
